{
  "source": "paper PMC10418725",
  "about": "“Trypsin from Pyloric Caeca of Asian Seabass: Purification, Characterization, and Its Use in the Hydrolysis of Acid-Soluble Collagen” (Foods, 2023)",
  "system": "purified trypsin (PT) from the pyloric caeca of Asian seabass",
  "assay": "inhibition of BAPNA hydrolysis after […] min preincubation",
  "format": "biochemical, Lates calcarifer",
  "details": "pH 8.5, 60 °C, 10 mM CaCl2, BAPNA substrate",
  "note": "Non-standard residues stand in square brackets, D forms with d. Residues, ends and D or L forms follow the SMILES beside them. *: point of attachment. Sta = CC(C)C[C@H](N)[C@@H](O)CC(=O)O; Isovaleryl = CC(C)CC(=O)*",
  "data": [
    {"smiles": "CC(C)C[C@H](NC(=O)[C@H]1O[C@@H]1C(=O)O)C(=O)NCCCCN=C(N)N", "note": "[E-64]", "values": [
      {"measurement": "% Inhibition", "setting": "100 µM", "result": "3.55 ± 0.89", "unit": "%"}
    ]},
    {"smiles": "O=C(O)CI", "note": "[Iodoacetic acid]", "values": [
      {"measurement": "% Inhibition", "setting": "1000 µM", "result": "1.35 ± 1.01", "unit": "%"}
    ]},
    {"smiles": "CC(C)CC(=O)N[C@H](C(=O)N[C@H](C(=O)N[C@@H](CC(C)C)[C@@H](O)CC(=O)N[C@@H](C)C(=O)N[C@@H](CC(C)C)[C@@H](O)CC(=O)O)C(C)C)C(C)C", "note": "[Pepstatin A] (Isovaleryl-VV[Sta]A[Sta]-OH)", "values": [
      {"measurement": "% Inhibition", "setting": "10 µM", "result": "0.73 ± 0.72", "unit": "%"}
    ]},
    {"smiles": "Cc1ccc(S(=O)(=O)N[C@@H](CCCCN)C(=O)CCl)cc1", "note": "[TLCK]", "values": [
      {"measurement": "% Inhibition", "setting": "5000 µM, covalent", "result": "93.62 ± 0.44", "unit": "%"}
    ]},
    {"smiles": "Cc1ccc(S(=O)(=O)N[C@@H](Cc2ccccc2)C(=O)CCl)cc1", "note": "[TPCK]", "values": [
      {"measurement": "% Inhibition", "setting": "5000 µM", "result": "3.44 ± 1.75", "unit": "%"}
    ]}
  ]
}
